Reference: article PMC4841768

Sequences of proteins named here, by UniProt entry; tags and fusion partners are left off. A change or cut given only in a name is not applied to a line headed by its entry.
UniProt P48432: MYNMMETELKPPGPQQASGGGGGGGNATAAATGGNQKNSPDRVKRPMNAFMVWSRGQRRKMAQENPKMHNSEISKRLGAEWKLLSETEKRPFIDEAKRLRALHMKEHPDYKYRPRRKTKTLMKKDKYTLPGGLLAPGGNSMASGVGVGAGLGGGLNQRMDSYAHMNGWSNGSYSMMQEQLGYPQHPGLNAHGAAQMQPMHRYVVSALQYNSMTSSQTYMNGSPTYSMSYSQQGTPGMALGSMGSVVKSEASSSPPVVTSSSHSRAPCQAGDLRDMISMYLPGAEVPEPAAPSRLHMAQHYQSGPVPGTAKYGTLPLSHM
UniProt Q3TKT4: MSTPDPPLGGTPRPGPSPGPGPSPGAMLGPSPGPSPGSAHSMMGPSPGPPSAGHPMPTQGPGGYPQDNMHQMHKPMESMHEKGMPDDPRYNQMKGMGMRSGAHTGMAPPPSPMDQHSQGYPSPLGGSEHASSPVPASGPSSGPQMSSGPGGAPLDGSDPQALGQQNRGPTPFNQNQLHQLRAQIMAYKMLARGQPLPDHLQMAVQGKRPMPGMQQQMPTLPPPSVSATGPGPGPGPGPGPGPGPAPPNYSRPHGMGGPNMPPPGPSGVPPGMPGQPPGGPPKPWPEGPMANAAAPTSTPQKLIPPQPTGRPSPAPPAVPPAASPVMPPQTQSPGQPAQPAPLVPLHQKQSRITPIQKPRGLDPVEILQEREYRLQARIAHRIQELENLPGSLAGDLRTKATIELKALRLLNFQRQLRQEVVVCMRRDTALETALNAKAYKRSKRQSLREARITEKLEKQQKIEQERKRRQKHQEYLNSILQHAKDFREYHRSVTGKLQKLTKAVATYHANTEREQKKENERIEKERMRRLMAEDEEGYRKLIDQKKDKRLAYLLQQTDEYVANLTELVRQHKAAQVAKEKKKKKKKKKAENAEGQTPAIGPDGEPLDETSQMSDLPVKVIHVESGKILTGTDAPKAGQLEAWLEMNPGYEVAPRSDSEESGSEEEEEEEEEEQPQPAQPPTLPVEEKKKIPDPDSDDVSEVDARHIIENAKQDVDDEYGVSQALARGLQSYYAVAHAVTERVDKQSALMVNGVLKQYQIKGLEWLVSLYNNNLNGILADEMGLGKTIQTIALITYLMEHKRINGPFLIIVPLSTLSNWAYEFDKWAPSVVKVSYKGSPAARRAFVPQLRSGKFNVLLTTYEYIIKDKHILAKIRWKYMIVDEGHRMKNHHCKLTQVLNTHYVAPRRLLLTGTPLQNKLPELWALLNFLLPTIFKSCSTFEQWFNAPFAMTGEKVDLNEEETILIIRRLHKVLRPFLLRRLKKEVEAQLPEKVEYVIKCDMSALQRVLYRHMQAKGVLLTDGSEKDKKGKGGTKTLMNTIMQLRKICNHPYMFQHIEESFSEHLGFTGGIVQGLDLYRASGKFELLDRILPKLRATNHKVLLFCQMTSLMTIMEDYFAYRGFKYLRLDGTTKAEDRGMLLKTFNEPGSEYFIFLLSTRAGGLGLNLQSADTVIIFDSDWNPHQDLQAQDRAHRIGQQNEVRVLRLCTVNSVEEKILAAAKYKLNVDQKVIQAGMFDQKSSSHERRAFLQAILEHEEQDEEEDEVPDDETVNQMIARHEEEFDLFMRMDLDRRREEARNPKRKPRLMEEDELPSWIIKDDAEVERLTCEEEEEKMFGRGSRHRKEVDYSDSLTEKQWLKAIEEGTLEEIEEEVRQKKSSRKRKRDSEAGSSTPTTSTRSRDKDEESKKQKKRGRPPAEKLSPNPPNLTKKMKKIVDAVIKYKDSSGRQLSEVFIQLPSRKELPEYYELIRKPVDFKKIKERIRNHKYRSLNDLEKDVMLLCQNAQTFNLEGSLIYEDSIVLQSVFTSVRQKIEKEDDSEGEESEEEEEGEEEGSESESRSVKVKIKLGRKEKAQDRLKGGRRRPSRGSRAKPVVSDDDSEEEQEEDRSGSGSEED
UniProt Q924K8: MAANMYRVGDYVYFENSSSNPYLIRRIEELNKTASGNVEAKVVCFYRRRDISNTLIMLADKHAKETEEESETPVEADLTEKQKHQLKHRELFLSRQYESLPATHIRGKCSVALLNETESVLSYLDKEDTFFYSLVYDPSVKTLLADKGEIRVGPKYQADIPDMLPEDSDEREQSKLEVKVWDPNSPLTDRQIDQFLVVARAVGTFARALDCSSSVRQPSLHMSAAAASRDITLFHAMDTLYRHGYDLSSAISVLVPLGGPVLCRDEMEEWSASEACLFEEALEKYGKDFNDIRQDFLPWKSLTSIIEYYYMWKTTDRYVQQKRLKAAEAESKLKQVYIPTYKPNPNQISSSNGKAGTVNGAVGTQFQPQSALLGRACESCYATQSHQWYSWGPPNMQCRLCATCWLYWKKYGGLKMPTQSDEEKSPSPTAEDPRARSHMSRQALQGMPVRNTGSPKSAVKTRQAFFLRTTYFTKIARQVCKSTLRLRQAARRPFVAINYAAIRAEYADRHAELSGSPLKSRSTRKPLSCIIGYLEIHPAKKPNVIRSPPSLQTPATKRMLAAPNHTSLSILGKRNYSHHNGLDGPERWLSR
UniProt P11103: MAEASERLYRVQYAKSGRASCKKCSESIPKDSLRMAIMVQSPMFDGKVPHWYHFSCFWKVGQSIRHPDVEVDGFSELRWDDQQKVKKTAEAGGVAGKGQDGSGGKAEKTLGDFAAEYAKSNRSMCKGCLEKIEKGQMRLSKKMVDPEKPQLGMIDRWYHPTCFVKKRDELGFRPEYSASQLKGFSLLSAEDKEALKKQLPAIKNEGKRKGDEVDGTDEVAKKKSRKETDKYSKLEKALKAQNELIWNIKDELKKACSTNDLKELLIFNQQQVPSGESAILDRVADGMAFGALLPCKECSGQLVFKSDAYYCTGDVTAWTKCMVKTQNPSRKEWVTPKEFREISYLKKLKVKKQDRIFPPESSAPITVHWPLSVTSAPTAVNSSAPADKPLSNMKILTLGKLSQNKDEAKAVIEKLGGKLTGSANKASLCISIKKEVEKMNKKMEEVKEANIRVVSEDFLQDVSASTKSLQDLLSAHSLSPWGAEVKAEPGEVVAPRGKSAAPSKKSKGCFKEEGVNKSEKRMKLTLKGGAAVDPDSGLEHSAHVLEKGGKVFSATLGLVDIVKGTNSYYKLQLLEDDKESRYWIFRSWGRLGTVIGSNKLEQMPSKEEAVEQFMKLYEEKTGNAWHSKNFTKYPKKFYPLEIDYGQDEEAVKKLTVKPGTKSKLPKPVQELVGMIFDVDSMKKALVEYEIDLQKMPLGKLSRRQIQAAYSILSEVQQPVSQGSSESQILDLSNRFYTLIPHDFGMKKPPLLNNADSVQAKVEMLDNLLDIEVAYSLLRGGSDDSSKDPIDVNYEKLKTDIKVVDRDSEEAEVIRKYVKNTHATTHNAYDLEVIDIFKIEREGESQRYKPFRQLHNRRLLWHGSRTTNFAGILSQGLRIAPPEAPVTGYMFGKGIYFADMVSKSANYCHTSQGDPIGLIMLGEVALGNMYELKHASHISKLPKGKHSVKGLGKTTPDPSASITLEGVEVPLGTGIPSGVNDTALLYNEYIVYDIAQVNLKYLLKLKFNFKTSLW
UniProt Q8VHR5: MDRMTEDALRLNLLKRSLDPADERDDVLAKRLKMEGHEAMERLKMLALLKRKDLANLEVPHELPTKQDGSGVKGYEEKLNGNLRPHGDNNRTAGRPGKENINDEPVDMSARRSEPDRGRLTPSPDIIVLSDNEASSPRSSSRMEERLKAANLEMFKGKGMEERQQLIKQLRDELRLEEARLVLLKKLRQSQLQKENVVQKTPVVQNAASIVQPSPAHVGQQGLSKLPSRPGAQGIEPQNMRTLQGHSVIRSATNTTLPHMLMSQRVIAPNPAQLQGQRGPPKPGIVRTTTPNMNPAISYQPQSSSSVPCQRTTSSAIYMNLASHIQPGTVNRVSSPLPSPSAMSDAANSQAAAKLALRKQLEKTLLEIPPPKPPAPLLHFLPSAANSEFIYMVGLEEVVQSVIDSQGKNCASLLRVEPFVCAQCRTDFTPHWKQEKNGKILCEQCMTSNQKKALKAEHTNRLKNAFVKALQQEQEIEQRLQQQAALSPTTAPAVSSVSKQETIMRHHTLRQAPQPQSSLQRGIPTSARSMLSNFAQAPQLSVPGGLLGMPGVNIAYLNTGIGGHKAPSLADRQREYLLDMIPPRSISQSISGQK

Assays:
[1] = target: 3xFLAG-tagged O-GlcNAc-deficient SOX2 S248A (3xF-SOX2^S248A) of fS248A-Tg mESCs (mouse) (UniProt P48432); experiment: affinity purification with mass spectrometry; anti-FLAG M2 beads with nuclear extracts of fSOX2-Tg, fS248A-Tg and haSOX2-Tg (control) mESCs, 4 °C two hours; on-bead trypsin digest; label-free quantitation (MaxQuant LFQ)
[2] = target: 3xFLAG-tagged O-GlcNAc-deficient SOX2 S248A (3xF-SOX2^S248A) of fS248A-Tg mESCs (mouse) (UniProt P48432); experiment: affinity purification with mass spectrometry; targeted analysis: two unique peptides for each NuRD component monitored (XICs) in anti-FLAG co-IPs of fSOX2-Tg and fS248A-Tg mESCs, three biological replicates

binding [1] | binding [2] | Substance
binds |  | SMARCA4 (mouse, endogenous in mESCs) (from UniProt Q3TKT4 1-1613)
binds | binds | MTA3 (mouse, endogenous in mESCs) (from UniProt Q924K8 1-591)
binds |  | PARP1 (mouse, endogenous in mESCs) (from UniProt P11103 1-1013)
binds |  | GATAD2B (mouse, endogenous in mESCs) (from UniProt Q8VHR5 1-594)

Results are given in words; binding and its absence hold for the method and conditions named. Binding seen in cells or lysates may run through a third protein. Here binding means that the protein was enriched with, or labelled near, the bait; the list need not be complete.
